Measurements from “University of Dundee, Small-Polar-MMV Screening Library” (2021), ChEMBL document CHEMBL3988442.

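Viability assay of Plasmodium falciparum sporozoites; the read-out is not stated. The concentration is filed as 10 mM, unlikely as a test dose, so the dose is not known. Higher reads as lower viability (inferred: compounds with an IC50 in retests scored well above the rest). Strong results were mostly tested again. Of about 34,000 compounds tested this way, about 280 (0.84%) reached 50% or more in at least one test.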

The filed quantity is “Percent Effect” (%). How 0% and 100% were set is not recorded. Most values in the screen are low, and negative values occur. Compounds were drawn at random from those tested, without regard to their results. Two or more numbers in one place are separate tests of the same structure; such repeats can differ widely.

compound,effect
CN(CCc1ncnn1-c1ccccc1Cl)C1CCS(=O)(=O)C1 (centres unmarked),22.02%
CCn1c(Nc2ccccc2OC)nc2c(C)nn(C)c2c1=O,-1.754%
COC1COC2(CCN(Cc3ccc4c(c3)OCO4)CC2)C1.O=C(O)C(F)(F)F (centres unmarked),14.45%
COCC(=O)NCc1cc(=O)n2c(n1)CN(Cc1ccccc1)CCC2.O=C(O)C(F)(F)F,2.35%
O=C(CCc1ccc(F)c(F)c1)N1CCCCC1Cn1cccn1 (centres unmarked),1.395%
Cc1ccc(CN2CCC3(CC2)NC(=O)CC3c2ccccc2)s1.O=C(O)C(F)(F)F (centres unmarked),9.928%
COC(=O)CC1CCN(C(=O)c2ccc(C)cc2)CC1,-13.1%
Cc1nn(C)c(C)c1C1CCCN1C(=O)c1ccc2c(c1)OCCO2 (centres unmarked),10.4%
[H][C@]12CN(C(=O)C3CC(F)(F)C3)C[C@@]1([H])OCCN(S(C)(=O)=O)C2,4.709%
C1CCC(c2nc3c(c(N4CC(N5CCOCC5)C4)n2)CCNCC3)C1,-6.572%
CC(=O)NCC1CCN(C(=O)NCCOc2ccc3c(c2)CCC3)CC1,-3.484%
Cc1nc2ccccc2c(=O)n1CCC(=O)N1CCCC1,3.674%
O=C(O)C(F)(F)F.[H][C@@]12CCN(C3CCOCC3)C[C@@]1([H])[C@H](C(=O)NC1CC1)CCO2,-0.8724%
CCn1nc2c(cc1=O)CN(c1ncnc3sccc13)CC2,4.302%
[H][C@]12CN(c3ncc(CC)cn3)C[C@@]1([H])S(=O)(=O)CC[C@@H]2C(=O)N(C)C,9.114%
O=C(O)C(F)(F)F.[H][C@@]12CCN(Cc3cc(C)on3)C[C@]1(C(=O)NC(C)C)CCO2,4.134%
O=C(O)c1cnc(N2CCC(c3nccn3CC3CC3)CC2)c(Cl)c1,0.1538%
O=C(O)C(F)(F)F.O=C(O)C(F)(F)F.[H][C@@]12CCN(Cc3ccncc3)[C@]1([H])CC[C@@H](C(=O)NCC1CCOCC1)O2,7.281%
CC(NC(=O)c1ccnn1C)c1ccc(OCC2CC2)c(F)c1 (centres unmarked),-4.153%
CN1CCN(c2ccccc2CNC(=O)Cc2cccc(F)c2)CC1,14.04%
CC(O)CN1CCN(C(=O)c2ccn(-c3ccc(F)cc3)n2)CC1 (centres unmarked),2.757%
CC(C)c1nc(C2CCCN2Cc2nccn2CC(F)(F)F)no1 (centres unmarked),-3.051%
COc1ccccc1OCC(=O)Nc1ncccc1Cl,1.568%
[H][C@@]12CCN(Cc3nccs3)[C@]1([H])CC[C@H](C(=O)N1CCN(C)CC1)O2,-3.61%
CCc1nc(CC(=O)N2CCCC2CN2CCCC2)cs1 (centres unmarked),4.167%
CSCCCN1CCCC1c1noc(C)n1 (centres unmarked),9.563%
CCS(=O)(=O)N(C)C1CCN(C(=O)c2cccc(Cl)c2)CC1,-10.37%
CCC(=O)N1CCCC1(C)c1nc(C)no1 (centres unmarked),15.01%
O=C(O)C(F)(F)F.O=C(c1cnccn1)N1CCC2(CC1)CCN(Cc1ccccn1)C2=O,-1.856%
Cl.O=C(c1cccnc1)N1CCC2(CC1)CNc1c(F)cccc12,2.426%
Cc1noc(C(C)C)c1C(=O)NCC(c1ccccc1)N(C)C (centres unmarked),-19.53% and 14.96% and -32.06%
O=C(CCC(=O)c1ccccc1)NC1(C(=O)NCC2CC2)CCCC1,-0.3337%
Cc1ccc(N2CCCC(NCC(=O)NC3CCOCC3)C2)nn1 (centres unmarked),-8.353%
CC(C)Cc1cc(NC(=O)c2cc(Cl)c[nH]2)n(C)n1,-11.58%
CC(C)N1c2sc(-c3ccsc3)nc2CC1C(=O)NC1CC1 (centres unmarked),76.28% and 81.46%
O=C(NCCc1cc(F)ccc1F)NCC(O)C1CC1 (centres unmarked),-11.52%
O=C(CCC(=O)Nc1nnc(C(F)(F)F)s1)NCC1CCCO1 (centres unmarked),-3.179%
Cn1ccnc1CN1CCN(Cc2ccc(C#N)cc2)CC1,-12.42%
O=C1CN(CC2CC2)Cc2nc(NCc3ccccc3)sc21,-6.859%
O=C(O)C(F)(F)F.O=C(O)C(F)(F)F.[H][C@@]12CN(Cc3ccc(OC)cc3)C[C@]1([H])OCCN2CC1CCCO1 (some centres unmarked),-6.171%
O=C(O)C(F)(F)F.[H][C@@]12CCN(Cc3nccs3)C[C@@]1([H])O[C@@H](C(=O)NC)C2,10.1%
CC(=O)N(Cc1ncc(C(C)C)o1)C1CCN(CCC#N)C1 (centres unmarked),-9.92%
CCCc1ncc(C(=O)N2CCOC(c3nc(C)n[nH]3)C2)s1 (centres unmarked),-18.62% and 26.73% and 29.63%
Cc1cccc(CN2Cc3ncn(C)c3C(COCC(=O)N(C)C)C2)n1.O=C(O)C(F)(F)F.O=C(O)C(F)(F)F.O=C(O)C(F)(F)F (centres unmarked),5.702%
CO[C@@]1(C)C[C@@H](O)C12CCN(C(=O)C1(c3ccccc3F)CC1)CC2,3.231%
CC(NC(=O)c1cc(N2CCNC2=O)ccc1F)c1ccc(F)cc1 (centres unmarked),-9.982% and -2.184%
C/C(=C\c1ccccc1)CN1CCCC(c2nnc3n2CCNCC3)C1.Cl (centres unmarked),8.076%
CCc1ccsc1C(=O)N(C)CCc1ccncc1,1.862%
NC(=O)c1c(NC(=O)CCC(=O)O)sc2c1CCc1ccccc1-2,5.641% and -2.431%
CC1COCCN1C(=O)c1cccc(OCc2cscn2)c1 (centres unmarked),0%
O=C(O)[C@H]1CN(Cc2ccccc2)C[C@@H]1C(=O)c1ccccc1,2.246%
Cc1cc2c(=O)n3c(nc2s1)CCN(Cc1[nH]cnc1C)CC3.Cl,-2.813%
[H][C@]12CN(C(=O)OC)CCN1C[C@@H](c1ccccc1)[C@@H]2C(=O)OCC,-16.35%
CCc1cnc2c(c1Nc1ccncc1)c(=O)n(C)c(=O)n2C,0.5587%
COCC(=O)N1CCCCC1c1nc(N(C)C)ncc1-c1cc(C)no1 (centres unmarked),17.16%
COCC(=O)NCCc1nc(N(C)C)ncc1-c1ccncc1,-3.82%
COc1ncnc2c1CCN(c1cc(C(F)(F)F)ncn1)CC2,9.848%
Cc1cc(CN(C)C(=O)c2cccc(N3CCCC3=O)c2)no1,-4.03%
Cc1noc(C(C)C)c1C(=O)NCC(c1cccc(F)c1)N(C)C (centres unmarked),-5.674% and -28.52% and -41.43%
C[C@@H]1CN(C(=O)c2ccc(C#N)nc2)CC[C@@]1(O)C1CCOCC1,6.471%
COc1ccc(-c2ccc(C3CNCCO3)nc2)cc1.Cl (centres unmarked),82.18% and 93.08% and 86.88%
CCCOc1ccc(C(=O)N[C@@H]2CCNC[C@H]2O)cc1Cl,3.727%
CCc1nc(C)c(C(=O)NCCN2CCCC2)s1,4.186%
O=C(c1ccc2c(c1)OCO2)N1CCC(Nc2cccnn2)CC1,-1.692%
O=C(COc1coc(CN2CCCCC2)cc1=O)Nc1ccc(Cl)cc1,-1.754%
O=C(O)c1ccccc1-n1cnc(CN2CCCCCC2)c1,9.687%
CC(=O)N1CCN(C(=O)C2SCCc3sccc32)CC1 (centres unmarked),-5.862%
O=C(NCc1ccc(-n2cncn2)nc1)c1ccc2c(c1)CCC2,1.996%
Cc1csc(CCCNC(=O)[C@H]2CNC[C@@H](C(=O)N3CCCC3)C2)n1,8.887%
CCN(Cc1ccco1)C(C)c1nc(C(C)C)no1 (centres unmarked),6.14%
O=C(O)C(F)(F)F.O=C(c1ccncc1)N1CCCC2(COCCN(c3ccccc3)C2)C1 (centres unmarked),-9.732%
Cc1cc(C)nc(Nc2cccc(C3CCCN(CC4CC4)C3)n2)n1 (centres unmarked),11.32%
O=C(N[C@]12CC1CN(C(=O)c1ccco1)C2)c1cccc(F)c1 (some centres unmarked),11.8%
CCc1nccn1C1CCCN(C(=O)c2ccn(-c3ccccc3)n2)C1 (centres unmarked),-4.792%
COC(=O)C(c1cc(F)ccc1F)N(C)C(=O)c1cnccn1 (centres unmarked),13.39%
Cc1cc(Cl)c(C)c(S(=O)(=O)N2CCN(Cc3ccccn3)CC2)c1Cl,1.611%
CN(CC(=O)NCC1CCCO1)Cc1nc2c(s1)CCCC2 (centres unmarked),56.93% and 58.41%
NC(=O)C1(c2cnccn2)CCCN1Cc1ccccn1 (centres unmarked),0.3997%
[H][C@@]12CN(Cc3ccc(CCC)o3)C[C@]1(C(=O)O)CN(CC1CC1)C2=O,-2.012%
COCCn1ccnc1CN1CCc2[nH]cnc2C1c1cccc(O)c1 (centres unmarked),-27.01%
Cc1nc[nH]c1CN(C)CC1CCCN(CCc2ccc(Cl)cc2)C1 (centres unmarked),-10.51%
CCc1cc(N2CCN3CCCCC3C2)n2nccc2n1 (centres unmarked),-34.62%
NCc1cn(-c2ccccc2C(=O)NCc2ccccc2Cl)cn1,2.665%
COC1CN(C(=O)OCC(C)C)CCC(=O)N(C)c2ccccc21 (centres unmarked),-22.07%
COc1c(CNCc2ccc(OCC(N)=O)cc2)c(C)nn1C,6.375%
Cc1csc(C(=O)N2CCCC(c3[nH]ncc3S(C)(=O)=O)C2)c1 (centres unmarked),-6.862%
Cc1cnc(C(=O)N2CCCC(n3cncn3)C2)cn1 (centres unmarked),-4.052%
CC(C)c1nc(CN2CCOC(Cn3cccn3)C2)no1 (centres unmarked),6.581%
CC1CN(c2ccc(CNC(=O)c3ccn(C)c(=O)c3)cn2)CCO1 (centres unmarked),-3.676%
COc1cc(-c2cc(OC)c(OC)c(OC)c2)ncn1,3.302%
CCn1c(N)nc2cc(C(=O)NCc3cccc(C)c3C)cnc21,-4.284% and 3.886%
O=C(Nc1cc(F)ccc1OCC1CCCO1)c1ccoc1 (centres unmarked),-1.784%
CNc1nc(CNC(=O)Nc2cccc(-c3ncc(C)o3)c2)cs1,3.307%
CC(=O)N1CCN(Cc2ccccn2)CC2(CC(=O)N(C)C2)C1.O=C(O)C(F)(F)F.O=C(O)C(F)(F)F (centres unmarked),-7.467%
NC(=O)C1CCN(C(=O)CCCc2nnc(-c3ccccc3)o2)C1 (centres unmarked),6.949%

The first 11 entries again:

{"compound": "CN(CCc1ncnn1-c1ccccc1Cl)C1CCS(=O)(=O)C1", "stereo": "centres unmarked", "effect": 22.02}
{"compound": "CCn1c(Nc2ccccc2OC)nc2c(C)nn(C)c2c1=O", "effect": -1.754}
{"compound": "COC1COC2(CCN(Cc3ccc4c(c3)OCO4)CC2)C1.O=C(O)C(F)(F)F", "stereo": "centres unmarked", "effect": 14.45}
{"compound": "COCC(=O)NCc1cc(=O)n2c(n1)CN(Cc1ccccc1)CCC2.O=C(O)C(F)(F)F", "effect": 2.35}
{"compound": "O=C(CCc1ccc(F)c(F)c1)N1CCCCC1Cn1cccn1", "stereo": "centres unmarked", "effect": 1.395}
{"compound": "Cc1ccc(CN2CCC3(CC2)NC(=O)CC3c2ccccc2)s1.O=C(O)C(F)(F)F", "stereo": "centres unmarked", "effect": 9.928}
{"compound": "COC(=O)CC1CCN(C(=O)c2ccc(C)cc2)CC1", "effect": -13.1}
{"compound": "Cc1nn(C)c(C)c1C1CCCN1C(=O)c1ccc2c(c1)OCCO2", "stereo": "centres unmarked", "effect": 10.4}
{"compound": "[H][C@]12CN(C(=O)C3CC(F)(F)C3)C[C@@]1([H])OCCN(S(C)(=O)=O)C2", "effect": 4.709}
{"compound": "C1CCC(c2nc3c(c(N4CC(N5CCOCC5)C4)n2)CCNCC3)C1", "effect": -6.572}
{"compound": "CC(=O)NCC1CCN(C(=O)NCCOc2ccc3c(c2)CCC3)CC1", "effect": -3.484}